Numbering of substitutions follows the chain as printed. The list shows a part of the results.

Details in all cases: yeast three-hybrid, YBZ-1, SC-Leu-His + 0.5 mM 3-AT, 4 days
The target in test [1] is T1, PUM1 PUF domain R5-AKR C1007A + R1008K + Q1011R (Homo sapiens) (UniProt Q14671).
T1 sequence: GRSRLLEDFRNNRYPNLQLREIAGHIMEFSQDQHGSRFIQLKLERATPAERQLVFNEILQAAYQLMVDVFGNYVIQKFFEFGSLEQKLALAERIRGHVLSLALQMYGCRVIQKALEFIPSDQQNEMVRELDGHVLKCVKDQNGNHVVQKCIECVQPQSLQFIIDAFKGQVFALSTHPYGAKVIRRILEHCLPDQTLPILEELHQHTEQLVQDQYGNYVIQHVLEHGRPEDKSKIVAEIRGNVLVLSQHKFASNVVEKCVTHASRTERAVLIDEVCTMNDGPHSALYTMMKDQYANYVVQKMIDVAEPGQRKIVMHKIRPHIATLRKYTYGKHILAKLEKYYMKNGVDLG

The target in test [2] is T2, PUM1 PUF domain R5-ASR C1007A + R1008S + Q1011R (Homo sapiens) (UniProt Q14671).
T2 sequence: T1 sequence with K181S

The target in test [3] is T3, PUM1 PUF domain R5-CGR R1008G + Q1011R (Homo sapiens) (UniProt Q14671).
T3 sequence: T1 sequence with A180C, K181G

Test [4] deals with T4, PUM1 PUF domain R5-FRG C1007F + Q1011G (Homo sapiens) (UniProt Q14671).
T4 sequence: T1 sequence with A180F, K181R, R184G

Test [5] has as its target T5, PUM1 PUF domain R5-FRV C1007F + Q1011V (Homo sapiens) (UniProt Q14671).
T5 sequence: T1 sequence with A180F, K181R, R184V

The target of test [6] is T6, PUM1 PUF domain R5-GKE C1007G + R1008K + Q1011E (Homo sapiens) (UniProt Q14671).
T6 sequence: T1 sequence with A180G, R184E

For test [7], the target named is T7, PUM1 PUF domain R5-GKS C1007G + R1008K + Q1011S (Homo sapiens) (UniProt Q14671).
T7 sequence: T1 sequence with A180G, R184S

The target of test [8] is T8, PUM1 PUF domain R5-KAL C1007K + R1008A + Q1011L (Homo sapiens) (UniProt Q14671).
T8 sequence: T1 sequence with A180K, K181A, R184L

For test [9], the target named is T9, PUM1 PUF domain R5-KAR C1007K + R1008A + Q1011R (Homo sapiens) (UniProt Q14671).
T9 sequence: T1 sequence with A180K, K181A

The target in test [10] is T10, PUM1 PUF domain R5-KGR C1007K + R1008G + Q1011R (Homo sapiens) (UniProt Q14671).
T10 sequence: T1 sequence with A180K, K181G

The target in test [11] is T11, PUM1 PUF domain R5-KGW C1007K + R1008G + Q1011W (Homo sapiens) (UniProt Q14671).
T11 sequence: T1 sequence with A180K, K181G, R184W

For test [12], the target named is T12, PUM1 PUF domain R5-KMV C1007K + R1008M + Q1011V (Homo sapiens) (UniProt Q14671).
T12 sequence: T1 sequence with A180K, K181M, R184V

The target in test [13] is T13, PUM1 PUF domain R5-KSS C1007K + R1008S + Q1011S (Homo sapiens) (UniProt Q14671).
T13 sequence: T1 sequence with A180K, K181S, R184S

The target of test [14] is T14, PUM1 PUF domain R5-NAR C1007N + R1008A + Q1011R (Homo sapiens) (UniProt Q14671).
T14 sequence: T1 sequence with A180N, K181A

Test [15] addresses T15, PUM1 PUF domain R5-NSR C1007N + R1008S + Q1011R (Homo sapiens) (UniProt Q14671).
T15 sequence: T1 sequence with A180N, K181S

For test [16], the target named is T16, PUM1 PUF domain R5-RKC C1007R + R1008K + Q1011C (Homo sapiens) (UniProt Q14671).
T16 sequence: T1 sequence with A180R, R184C

Test [17] addresses T17, PUM1 PUF domain R5-RKI C1007R + R1008K + Q1011I (Homo sapiens) (UniProt Q14671).
T17 sequence: T1 sequence with A180R, R184I

Test [18] concerns the target T18, PUM1 PUF domain R5-RQV C1007R + R1008Q + Q1011V (Homo sapiens) (UniProt Q14671).
T18 sequence: T1 sequence with A180R, K181Q, R184V

Test [19] has as its target T19, PUM1 PUF domain R5-RSK C1007R + R1008S + Q1011K (Homo sapiens) (UniProt Q14671).
T19 sequence: T1 sequence with A180R, K181S, R184K

Test [20] addresses T20, PUM1 PUF domain R5-SVT C1007S + R1008V + Q1011T (Homo sapiens) (UniProt Q14671).
T20 sequence: T1 sequence with A180S, K181V, R184T

Regarding “GGCUAGAACUAGUGGAUCCCCCGGCGCCCGGCGGCUCGAGCCCGGGUAAGUGUAAAUAGUCUGCAUGCCGCCGGGCGCCAUGCCUGCAGGUCGACUCUAGAAAACAUG”, the binding signal (log2 enrichment (interaction score)) in [1] was 0.01; in test [2] it was 0.05; in test [3], -0.26; in test [4], 0.04; in test [5], -0.2; in [6] it was -0.06. The binding signal (log2 enrichment (interaction score)) in [7] is -0.26; in [8] it was -0; in [9] it was -0; in [10], 0.04; in test [11], -1; in test [12], -1.23. Also, the binding signal (log2 enrichment (interaction score)) in [13] was -0.04; in test [14], 0.01; in [15] it was -0.02; in [16], -0; in test [17], -0.07; in test [18], -1.45. Also, the binding signal (log2 enrichment (interaction score)) in [19] came to 0.02; in [20], 0.04.

The values are drawn from PMC8384837.
